Earlier results in patent publication US20240180894A1, “METHODS OF TREATING MENTAL AND/OR MOOD DISORDERS USING 2-BROMO-LSD ALONE OR IN COMBINATION WITH A MTOR INHIBITOR” (BeTTERLIFE PHARMA INC., priority 2021, published 2024).

CO[C@H]1C[C@@H]2CC[C@@H](C)[C@@](O)(O2)C(=O)C(=O)N2CCCC[C@H]2C(=O)O[C@H]([C@H](C)C[C@@H]2CC[C@@H](O)[C@H](OC)C2)CC(=O)[C@H](C)/C=C(\C)[C@@H](O)[C@@H](OC)C(=O)[C@H](C)C[C@H](C)/C=C/C=C/C=C/1C [Rapamycin, (3S,6R,7E,9R,10R,12R,14S,15E,17E,19E,21S,23S,26R,27R,34aS)-9,10,12,13,14,21,22,23,24,25,26,27,32,33,34,34a-hexadecahydro-9,27-dihydroxy-3-[(1R)-2-[(1S,3R,4R)-4-hydroxy-3-methoxycyclohexyl]-1-methylethyl]-10,21-dimethoxy-6,8,12,14,20,26-hexamethyl-23,27-epoxy-3H-pyrido[2,1-c][1,4]-oxaazacyclohentriacontine-1,5,11,28,29(4H,6H,31H)-pentone]
solubility in alcohols, halogenated hydrocarbons and dimethyl sulfoxide (alcohols, halogenated hydrocarbons, dimethyl sulfoxide): soluble
solubility in water, aliphatic hydrocarbons, and diethyl ether (water, aliphatic hydrocarbons, diethyl ether): sparingly soluble
